In PubChem BioAssay AID720579 (National Center for Advancing Translational Sciences (NCATS), 2013):
In all, about 310,000 compounds went through this assay and about 1,900 (0.61%) were called active. Only results without a clear call are listed here; the source files them as inconclusive. Calls follow the shape of the full dose curve; tested in A549 cells.

assay: qHTS for Stage-Specific Inhibitors of Vaccinia Orthopoxvirus: mCherry Reporter Primary qHTS; details: Vaccinia virus mCherry reporter infection, fluorescence; also: nearly all actives have a fitted effect of over 35% in size
Potency is read from the fitted curve at half-maximal effect.

| SMILES | Potency |
| --- | --- |
| CC1=CC2OC3CC4OC(=O)C=CC=CC(=O)OCCC(C)C(O)C(=O)OCC2(CC1O)C4(C)C31CO1 (centres undefined) | inconclusive: 35.5 µM |
| O=[N+]([O-])c1cc([N+](=O)[O-])c(Nc2ccccn2)c([N+](=O)[O-])c1 | inconclusive: 12.6 µM |
| CC(=O)OC1C(=O)OCC23CCC4(C)OC4C2OC2CC(OC(=O)C=CC=CC(=O)OCCC1C)C3(C)C21CO1 (centres undefined) | inconclusive: 6.31 µM |
| O=[N+]([O-])c1cc([N+](=O)[O-])c(Nc2cccnc2)c([N+](=O)[O-])c1 | inconclusive: 2 µM |
| O=[N+]([O-])c1ccc2c(c1)C=Nc1ccccc1O2 | inconclusive: 14.1 µM |
| CCOC(=O)c1ccc(NP(C)(=O)Oc2cc(C)cc(C)c2)cc1 (centres undefined) | inconclusive: 28.2 µM |
| CP(=O)(Nc1ccc(SC(F)(F)F)cc1)Oc1ccccc1 (centres undefined) | inconclusive: 10 µM |
| O=[N+]([O-])c1cc([N+](=O)[O-])c(Nc2nnnn2CCO)c([N+](=O)[O-])c1 | inconclusive: 22.4 µM |
| CC1CCOC(=O)C=CC=CC(=O)OC2CC3OC4C5OC5(C)CCC4(COC(=O)C1O)C2(C)C31CO1 (centres undefined) | inconclusive: 0.1 µM |
